Measurements reported in PubChem BioAssay AID686943 (Drosophila RNAi Screening Center, 2013).
The deposit covers about 23,000 reagents; shown is an unselected part of those that have a named target and a result. 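Extra replicates exist only for a retested subset of genes; insulin dose and duration not given; both raised and lowered dpERK matter.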 Names joined by + are all predicted targets of the reagent. Further read-outs or replicates are left out here. Not given: the amount of reagent, the time to read-out.

- Purpose: 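Knockdowns that increase or decrease active ERK after insulin receptor stimulation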 (primary screen)
- System: Drosophila S2R+ haemocyte-like cells expressing YFP-tagged ERK (Rolled)
- Knock-down reagent: long dsRNA against Drosophila genes
- Challenge: insulin stimulation versus unstimulated cells; dose and duration not given
- Read-out: 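Per-plate z-scores of phospho-ERK immunostaining normalised to YFP-tagged ERK, measured with and without insulin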
- Scale: replicate 1, z-score of dpERK with insulin: higher = more active ERK per ERK-YFP after insulin

{"gene": "RpL18", "dsRNA": "DRSC11016", "replicate 1, z-score of dpERK with insulin": -1.95}
{"gene": "RpL18", "dsRNA": "DRSC22323", "replicate 1, z-score of dpERK with insulin": -0.89}
{"gene": "CG1983", "dsRNA": "DRSC15410", "replicate 1, z-score of dpERK with insulin": 0.17}
{"gene": "Cnot4", "dsRNA": "DRSC02830", "replicate 1, z-score of dpERK with insulin": 0.18}
{"gene": "Cnot4", "dsRNA": "DRSC02831", "replicate 1, z-score of dpERK with insulin": -0.34}
{"gene": "snoRNA:Me28S-A982b + Uhg4 + snoRNA:Me28S-G3255a + 1 more", "dsRNA": "DRSC05143", "replicate 1, z-score of dpERK with insulin": -0.41}
{"gene": "CG9269", "dsRNA": "DRSC16465", "replicate 1, z-score of dpERK with insulin": 0.58}
{"gene": "Seipin", "dsRNA": "DRSC18654", "replicate 1, z-score of dpERK with insulin": 1.98}
{"gene": "CG14191", "dsRNA": "DRSC19546", "replicate 1, z-score of dpERK with insulin": 0}
{"gene": "Mst87F", "dsRNA": "DRSC16747", "replicate 1, z-score of dpERK with insulin": 0.35}
{"gene": "mRpL3", "dsRNA": "DRSC20100", "replicate 1, z-score of dpERK with insulin": -0.15}
{"gene": "Ccdc85", "dsRNA": "DRSC00501", "replicate 1, z-score of dpERK with insulin": -0.74}
{"gene": "CG30026", "dsRNA": "DRSC05276", "replicate 1, z-score of dpERK with insulin": -0.69}
{"gene": "CG10444", "dsRNA": "DRSC05990", "replicate 1, z-score of dpERK with insulin": 0.75}
{"gene": "tamo", "dsRNA": "DRSC04446", "replicate 1, z-score of dpERK with insulin": -0.34}
{"gene": "CG14630", "dsRNA": "DRSC18166", "replicate 1, z-score of dpERK with insulin": 0.82}
{"gene": "CG14630", "dsRNA": "DRSC18653", "replicate 1, z-score of dpERK with insulin": -0.47}
{"gene": "Atg1", "dsRNA": "DRSC09809", "replicate 1, z-score of dpERK with insulin": 0.18}
{"gene": "Atg1", "dsRNA": "DRSC09810", "replicate 1, z-score of dpERK with insulin": 0.76}
{"gene": "ClpX", "dsRNA": "DRSC15592", "replicate 1, z-score of dpERK with insulin": -0.13}
{"gene": "Fst", "dsRNA": "DRSC16491", "replicate 1, z-score of dpERK with insulin": 0.04}
{"gene": "CG9801", "dsRNA": "DRSC16568", "replicate 1, z-score of dpERK with insulin": -0.15}
{"gene": "CG31559", "dsRNA": "DRSC12172", "replicate 1, z-score of dpERK with insulin": 0.05}
{"gene": "CG31559", "dsRNA": "DRSC12270", "replicate 1, z-score of dpERK with insulin": 0.38}
{"gene": "CG10383", "dsRNA": "DRSC02050", "replicate 1, z-score of dpERK with insulin": -0.26}
{"gene": "CG1724", "dsRNA": "DRSC20548", "replicate 1, z-score of dpERK with insulin": -1.49}
{"gene": "egr", "dsRNA": "DRSC06233", "replicate 1, z-score of dpERK with insulin": 0.71}
{"gene": "tow", "dsRNA": "DRSC10192", "replicate 1, z-score of dpERK with insulin": -4.5}
{"gene": "HPS1", "dsRNA": "DRSC06195", "replicate 1, z-score of dpERK with insulin": 0.34}
{"gene": "CG15365", "dsRNA": "DRSC18038", "replicate 1, z-score of dpERK with insulin": -2.65}
{"gene": "ana2", "dsRNA": "DRSC05952", "replicate 1, z-score of dpERK with insulin": -0.42}
{"gene": "CG13625", "dsRNA": "DRSC14627", "replicate 1, z-score of dpERK with insulin": 0.39}
{"gene": "CG8128", "dsRNA": "DRSC20084", "replicate 1, z-score of dpERK with insulin": -0.15}
{"gene": "Su(var)205", "dsRNA": "DRSC03446", "replicate 1, z-score of dpERK with insulin": -0.92}
{"gene": "Pino", "dsRNA": "DRSC00038", "replicate 1, z-score of dpERK with insulin": -3.91}
{"gene": "Pino", "dsRNA": "DRSC00662", "replicate 1, z-score of dpERK with insulin": -0.5}
{"gene": "CG1722", "dsRNA": "DRSC20547", "replicate 1, z-score of dpERK with insulin": 0.02}
{"gene": "Osbp", "dsRNA": "DRSC16779", "replicate 1, z-score of dpERK with insulin": -0.5}
{"gene": "Polr2I", "dsRNA": "DRSC16832", "replicate 1, z-score of dpERK with insulin": 1.54}
{"gene": "AttC", "dsRNA": "DRSC06886", "replicate 1, z-score of dpERK with insulin": 0.22}
